These are yes or no findings as the source states them, for the method shown. In cells and extracts the contact can be indirect. For some assays here: A result given as binding can be weak or reduced; the word gives no strength. For some assays here: Tags and fused reporters may be left off the sequences shown.
T1: Hrd1a-cYFP (Arabidopsis) (UniProt Q9LW77)
T1 sequence: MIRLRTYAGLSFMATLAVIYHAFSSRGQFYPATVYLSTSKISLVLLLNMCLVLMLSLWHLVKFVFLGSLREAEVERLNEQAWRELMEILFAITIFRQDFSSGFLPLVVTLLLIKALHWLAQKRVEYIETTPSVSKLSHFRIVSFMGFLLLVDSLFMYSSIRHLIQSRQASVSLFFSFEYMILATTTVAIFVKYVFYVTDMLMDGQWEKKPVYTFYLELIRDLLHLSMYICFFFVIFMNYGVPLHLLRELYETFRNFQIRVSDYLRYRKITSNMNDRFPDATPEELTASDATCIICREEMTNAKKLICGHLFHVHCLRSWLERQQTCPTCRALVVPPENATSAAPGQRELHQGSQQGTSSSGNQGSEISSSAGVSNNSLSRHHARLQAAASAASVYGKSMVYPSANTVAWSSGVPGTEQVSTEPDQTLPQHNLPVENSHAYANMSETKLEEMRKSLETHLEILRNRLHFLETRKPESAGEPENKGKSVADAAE

Chains of the proteins cited; added tags and fusions are not shown. Lines headed by an entry give the natural chain unless they say otherwise; changes in a name come on top.
UniProt Q9SZR6: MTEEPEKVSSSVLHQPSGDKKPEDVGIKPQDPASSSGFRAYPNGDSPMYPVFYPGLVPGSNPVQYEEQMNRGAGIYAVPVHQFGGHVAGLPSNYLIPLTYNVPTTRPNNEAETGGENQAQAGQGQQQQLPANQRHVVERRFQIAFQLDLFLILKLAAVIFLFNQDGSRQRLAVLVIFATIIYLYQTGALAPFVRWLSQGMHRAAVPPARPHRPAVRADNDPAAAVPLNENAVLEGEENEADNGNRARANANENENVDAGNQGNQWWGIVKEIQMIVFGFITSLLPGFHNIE
UniProt F4JP55: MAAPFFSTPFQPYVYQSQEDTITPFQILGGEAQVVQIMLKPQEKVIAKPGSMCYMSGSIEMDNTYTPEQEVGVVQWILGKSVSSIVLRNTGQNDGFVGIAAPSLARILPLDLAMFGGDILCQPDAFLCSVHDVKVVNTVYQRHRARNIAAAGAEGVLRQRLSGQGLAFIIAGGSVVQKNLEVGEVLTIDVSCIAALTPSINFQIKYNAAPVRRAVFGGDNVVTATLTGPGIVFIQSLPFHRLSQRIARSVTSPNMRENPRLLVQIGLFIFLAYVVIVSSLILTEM
UniProt F4JX49: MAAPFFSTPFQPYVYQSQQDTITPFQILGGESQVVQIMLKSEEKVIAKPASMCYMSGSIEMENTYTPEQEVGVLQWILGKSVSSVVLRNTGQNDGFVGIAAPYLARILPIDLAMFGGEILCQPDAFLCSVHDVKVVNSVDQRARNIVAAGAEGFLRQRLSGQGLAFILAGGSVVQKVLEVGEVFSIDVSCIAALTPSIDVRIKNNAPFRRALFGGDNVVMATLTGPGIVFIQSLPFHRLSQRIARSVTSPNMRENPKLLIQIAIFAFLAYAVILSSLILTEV


Assays:
Hrd1a-cYFP (Arabidopsis) = target: T1, Hrd1a-cYFP (Arabidopsis); test: split reporter; BiFC with split YFP, transient co-expression in tobacco (Nicotiana benthamiana) leaf epidermal cells, confocal microscopy two days after infiltration
[1] = target: EBS7 (EMS-mutagenized Bri1 Suppressor7) (Arabidopsis (endogenous in seedlings)) (UniProt Q9SZR6); test: co-IP; anti-EBS7 antibody and protein-A/G-agarose, total proteins of 10-day-old wild-type Arabidopsis seedlings (also of the hrd1a hrd1b bri1-9 mutant); 50 mM Tris-HCl pH 8.0, 150 mM NaCl, 5 mM EDTA, 0.1% Triton X-100, 0.2% Nonidet P-40, 4 °C, 8 h; immunoblot with anti-EBS7, anti-PAWH, anti-Hrd1a

binding (Hrd1a-cYFP (Arabidopsis)) | Molecule | binding [1]
no binding | nYFP-PAWH1 (Arabidopsis) | –
no binding | nYFP-PAWH2 (Arabidopsis) | –
– | Protein Associated With Hrd1-1 (PAWH1) (from UniProt F4JP55) | binds
– | Protein Associated With Hrd1-2 (PAWH2) (from UniProt F4JX49) | binds
– | Hrd1a (protein, UniProt Q9LW77 1-492) MIRLRTYAGLSFMATLAVIYHAFSSRGQFYPATVYLSTSKISLVLLLNMCLVLMLSLWHLVKFVFLGSLREAEVERLNEQAWRELMEILFAITIFRQDFSSGFLPLVVTLLLIKALHWLAQKRVEYIETTPSVSKLSHFRIVSFMGFLLLVDSLFMYSSIRHLIQSRQASVSLFFSFEYMILATTTVAIFVKYVFYVTDMLMDGQWEKKPVYTFYLELIRDLLHLSMYICFFFVIFMNYGVPLHLLRELYETFRNFQIRVSDYLRYRKITSNMNDRFPDATPEELTASDATCIICREEMTNAKKLICGHLFHVHCLRSWLERQQTCPTCRALVVPPENATSAAPGQRELHQGSQQGTSSSGNQGSEISSSAGVSNNSLSRHHARLQAAASAASVYGKSMVYPSANTVAWSSGVPGTEQVSTEPDQTLPQHNLPVENSHAYANMSETKLEEMRKSLETHLEILRNRLHFLETRKPESAGEPENKGKSVADAAE | binds

From paper PMC6677890
